Like-named read-outs stand apart in the source and are kept apart here. These are yes or no findings as the source states them, for the method shown. For part of these data: In cells and extracts the contact can be indirect. Some results given as binding are weak or reduced against the parent protein; the word gives no strength. For part of these data: Sequences can lack the tags named with a protein.
Key:
[1] = target: T1, human Twisted gastrulation (residues Cys26-Phe223) (human) (UniProt Q9GZX9); experiment: SPR
T1 sequence: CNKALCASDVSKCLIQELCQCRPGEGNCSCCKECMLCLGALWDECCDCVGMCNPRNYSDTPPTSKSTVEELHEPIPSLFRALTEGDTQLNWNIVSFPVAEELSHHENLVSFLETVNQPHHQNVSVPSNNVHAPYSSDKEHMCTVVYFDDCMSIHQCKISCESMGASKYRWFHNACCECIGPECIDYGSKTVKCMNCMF

The chains behind the UniProt entries cited, without tags or fusion partners. Where a name states a change or a piece, a line headed by the entry shows the natural chain unless it says otherwise. Residues count along the entry.
UniProt P36894, 24-152: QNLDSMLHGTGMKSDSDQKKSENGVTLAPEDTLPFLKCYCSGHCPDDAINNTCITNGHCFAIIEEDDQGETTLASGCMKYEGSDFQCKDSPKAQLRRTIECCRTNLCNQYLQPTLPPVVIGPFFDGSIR

[2] = target: T2, Drosophila Tsg truncation (Met1-Glu208) lacking the tail, with ALFA tag (Drosophila) (UniProt P54356); experiment: co-IP
T2 sequence: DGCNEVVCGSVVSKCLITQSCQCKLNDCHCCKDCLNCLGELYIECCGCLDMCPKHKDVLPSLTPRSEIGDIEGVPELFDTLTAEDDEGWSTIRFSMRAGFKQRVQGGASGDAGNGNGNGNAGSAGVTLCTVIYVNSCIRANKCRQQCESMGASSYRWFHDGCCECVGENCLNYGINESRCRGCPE

[3] = target: T3, Drosophila Twisted gastrulation with C-terminal ALFA tag (Drosophila) (UniProt P54356); experiment: co-IP
T3 sequence: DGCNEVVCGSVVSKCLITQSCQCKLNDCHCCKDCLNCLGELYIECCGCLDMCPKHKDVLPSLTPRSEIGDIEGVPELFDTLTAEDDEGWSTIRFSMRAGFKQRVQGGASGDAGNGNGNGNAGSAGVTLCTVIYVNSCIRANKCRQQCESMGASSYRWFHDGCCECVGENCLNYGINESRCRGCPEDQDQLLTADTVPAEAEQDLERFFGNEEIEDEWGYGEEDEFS

[4] = target: T4, Drosophila Twisted gastrulation Leu100Ala with C-terminal ALFA tag (Drosophila) (UniProt P54356); experiment: co-IP
T4 sequence: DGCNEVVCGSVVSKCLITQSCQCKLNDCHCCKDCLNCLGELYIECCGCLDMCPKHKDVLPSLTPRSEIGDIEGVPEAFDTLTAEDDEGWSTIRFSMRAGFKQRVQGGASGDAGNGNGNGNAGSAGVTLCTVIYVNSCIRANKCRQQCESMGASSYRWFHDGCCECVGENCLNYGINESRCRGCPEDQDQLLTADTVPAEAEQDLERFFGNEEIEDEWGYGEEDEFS

[5] = target: T2, Drosophila Tsg truncation (Met1-Glu208) lacking the tail, with ALFA tag (Drosophila); experiment: co-IP; remark: listed apart in the source
[6] = target: T3, Drosophila Twisted gastrulation with C-terminal ALFA tag (Drosophila); experiment: co-IP; remark: listed apart in the source
[7] = target: T5, human BMPR2-FC fusion protein (human) (UniProt Q13873); experiment: BLI
T5 sequence: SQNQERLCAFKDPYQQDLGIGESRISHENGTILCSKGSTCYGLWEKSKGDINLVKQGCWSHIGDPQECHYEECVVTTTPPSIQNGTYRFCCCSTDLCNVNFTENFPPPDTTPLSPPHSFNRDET

[8] = target: human BMPR1a-FC fusion protein (human) (UniProt P36894); experiment: BLI

human BMPR1a-FC fusion protein (from UniProt P36894 24-152)
binding [1]: no binding (tested: 1 µM)

B1: Dpp:HA/Scw:Flag heterodimer (complex, UniProt P07713 457-588; P54631 278-400)
chain 1: DVSGGEGGGKGGRNKRQPRRPTRRKNHDDTCRRHSLYVDFSDVGWDDWIVAPLGYDAYYCHGKCPFPLADHFNSTNHAVVQTLVNNMNPGKVPKACCVPTQLDSVAMLYLNDQSTVVLKNYQEMTVVGCGCR
chain 2: AGGGSPPPPPPPPVDLYRPPQSCERLNFTVDFKELHMHNWVIAPKKFEAYFCGGGCNFPLGTKMNATNHAIVQTLMHLKQPHLPKPCCVPTVLGAITILRYLNEDIIDLTKYQKAVAKECGCH
binding [2]: binds
binding [3]: binds
binding [4]: binds
binding [5]: binds
binding [6]: binds

B2: human BMPR2-FC fusion protein (Fc fusion, UniProt Q13873 27-150)
chain: SQNQERLCAFKDPYQQDLGIGESRISHENGTILCSKGSTCYGLWEKSKGDINLVKQGCWSHIGDPQECHYEECVVTTTPPSIQNGTYRFCCCSTDLCNVNFTENFPPPDTTPLSPPHSFNRDET
binding [1]: no binding (tested: 1 µM)

B3: human Twisted gastrulation (residues Cys26-Phe223) (protein, UniProt Q9GZX9 26-223)
chain: CNKALCASDVSKCLIQELCQCRPGEGNCSCCKECMLCLGALWDECCDCVGMCNPRNYSDTPPTSKSTVEELHEPIPSLFRALTEGDTQLNWNIVSFPVAEELSHHENLVSFLETVNQPHHQNVSVPSNNVHAPYSSDKEHMCTVVYFDDCMSIHQCKISCESMGASKYRWFHNACCECIGPECIDYGSKTVKCMNCMF
binding [7]: no binding (tested: 1 µM)
binding [8]: no binding (tested: 1 µM)
